The values that follow come from paper PMC4747383, “Design of a peptidic inhibitor that targets the dimer interface of a prototypic galectin” (Oncotarget, 2015).

Protein sequences, listed by entry. Tags and fused reporters are not part of them. Residues count along the entry.
UniProt P47929, residues 2-136: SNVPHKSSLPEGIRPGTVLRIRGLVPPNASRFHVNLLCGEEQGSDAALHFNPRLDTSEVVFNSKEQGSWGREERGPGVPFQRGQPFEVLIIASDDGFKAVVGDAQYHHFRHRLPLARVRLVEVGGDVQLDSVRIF

No constants are given. Whether binding was seen depends on the method and setting. Some binding calls cover weakened binding; strength is not graded here.

The target of this test is recombinant human galectin-7 (human) (UniProt P47929). Briefly: native gel or EMSA; data not shown; hGal-7 (0.5 uM) with increasing concentrations of hGal-7(13-25), formation of homodimers measured; both purified. (Mobility shift assays separate free from complexed probe on a gel.)

Turning to IRPGTVLRIRGLV (C-terminal amide) [hGal-7(13–25) peptide], the binding entry is on record as “binds”.
